Test results taken from article PMC7075897.
These are yes or no findings as the source states them, for the method shown. Binding seen in cells or lysates may run through a third protein. A yes stands for co-enrichment or nearness to the bait. Other partners may have been found. Tags and fused reporters may be left off the sequences shown. Blank lines part the entries; values can stand above or below the binder they belong to.

Key:
[1] = biological target: T1, Usp fused to APEX2 through a 25 nm GS linker, marked with 3xFLAG (Drosophila melanogaster) (UniProt P20153); experiment: proximity labelling; APEX2 fused to EcR or Usp, stably expressed in S2 cells; 20E or DMSO 1 h, biotin-phenol 30 min, 1 mM H2O2 5 min; nuclear extract, Streptavidin-Agarose precipitation, LC-MS/MS
T1 sequence: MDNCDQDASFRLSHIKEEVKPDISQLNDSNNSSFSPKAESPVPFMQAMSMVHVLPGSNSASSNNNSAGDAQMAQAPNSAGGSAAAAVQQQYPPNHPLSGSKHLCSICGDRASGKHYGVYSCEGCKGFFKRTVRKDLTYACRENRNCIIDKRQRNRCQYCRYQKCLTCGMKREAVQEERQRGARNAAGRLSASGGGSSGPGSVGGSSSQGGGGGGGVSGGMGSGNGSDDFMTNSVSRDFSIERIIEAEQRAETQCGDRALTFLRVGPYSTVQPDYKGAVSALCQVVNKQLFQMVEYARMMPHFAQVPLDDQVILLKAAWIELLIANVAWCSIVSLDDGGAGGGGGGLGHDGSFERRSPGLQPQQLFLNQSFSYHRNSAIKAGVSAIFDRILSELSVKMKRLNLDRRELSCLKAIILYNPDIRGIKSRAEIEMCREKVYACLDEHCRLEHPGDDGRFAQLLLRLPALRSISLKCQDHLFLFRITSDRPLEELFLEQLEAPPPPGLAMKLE

[2] = biological target: T2, EcR (isoform A) fused to APEX2 through a 25 nm GS linker, marked with 3xFLAG (Drosophila melanogaster) (UniProt P34021); experiment: as above
T2 sequence: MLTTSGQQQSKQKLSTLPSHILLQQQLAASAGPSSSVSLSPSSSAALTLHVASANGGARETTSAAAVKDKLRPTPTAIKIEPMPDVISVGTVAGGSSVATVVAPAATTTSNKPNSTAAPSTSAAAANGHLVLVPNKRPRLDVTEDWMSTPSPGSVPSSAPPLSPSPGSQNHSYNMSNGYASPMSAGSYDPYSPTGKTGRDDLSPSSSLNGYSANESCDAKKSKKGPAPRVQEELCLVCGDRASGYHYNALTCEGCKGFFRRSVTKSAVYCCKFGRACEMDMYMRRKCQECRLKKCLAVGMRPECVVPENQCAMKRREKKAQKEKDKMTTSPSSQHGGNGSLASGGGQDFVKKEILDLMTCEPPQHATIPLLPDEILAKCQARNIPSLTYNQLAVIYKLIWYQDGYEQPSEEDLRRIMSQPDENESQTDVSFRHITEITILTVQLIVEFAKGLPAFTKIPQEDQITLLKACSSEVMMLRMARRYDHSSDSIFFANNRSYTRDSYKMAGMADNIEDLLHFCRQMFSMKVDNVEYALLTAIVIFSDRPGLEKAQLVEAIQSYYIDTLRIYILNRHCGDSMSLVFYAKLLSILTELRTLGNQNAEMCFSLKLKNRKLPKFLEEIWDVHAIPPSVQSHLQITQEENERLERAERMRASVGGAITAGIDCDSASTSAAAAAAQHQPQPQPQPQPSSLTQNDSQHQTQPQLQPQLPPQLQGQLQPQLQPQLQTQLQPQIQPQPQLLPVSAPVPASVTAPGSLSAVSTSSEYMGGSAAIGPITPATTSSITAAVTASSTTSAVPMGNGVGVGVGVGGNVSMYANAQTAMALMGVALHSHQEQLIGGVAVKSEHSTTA

B2: Mcm5 (protein, UniProt Q9VGW6 1-733)
chain: MEGFDDAGVFFSDNFGGDNQQDAQINLQAVKKKYKEFIRTFNEENFFYKYRDTLKRNYLNGRYFLEIEMEDLVGFDETLADKLNKQPTEHLEIFEEAAREVADEITAPRPEHEEHMHDIQILLSSNANPTNIRQLKSDCVSKLVKIAGIIVAASGISAKATRMSIQCLSCSTVIPNLKVNPGLEGYALPRKCNTEQAGRPKCPLDPFFIMPDKCKCVDFQTLKLQELPDFVPQGEIPRHLQLFCDRSLCERVVPGNRVLIQGIYSIRKVGKPSRRDGREKAVVGVRAPYMRVVGITVDSEGAGAISRYSNITSDEEEHFRRMAASGDIYERLSQSLAPSIFGSRDIKKAITCMLFGGSRKRLPDGLCRRGDINVLLLGDPGTAKSQLLKFVEKVAPIAVYTSGKGSSAAGLTASVMKDPQTRNFVMEGGAMVLADGGVVCIDEFDKMREDDRVAIHEAMEQQTISIAKAGITTTLNSRCSVLAAANSIFGRWDDTKGEENIDFMPTILSRFDMIFIVKDIHDESRDITLAKHIINVHLSSNKSAPSEPAEGEISLSTFKKYIHYCRTHCGPRLSEAAGEKLKSRYVLMRSGAGQQEKASDKRLSIPITVRQLEAVIRISESLAKIRLQPFATDEHVNEALRLFQVSTLDAAMTGSLAGAEGFTTEEDQETLNRIEKQLKRRFAIGSQVSEQNILQDFLRQKYEERTVMKVIHTMIRRGELQHRMQRKMLYRIC
binding [2]: binds

B5: Ars2 (protein, UniProt Q9V9K7 1-943)
chain: MGDSDDEYDRKRRDKFRGERESYRTERRDDRRPVGGSAGARDEWAERNPFRGGASAGGGGARHRPDYSDYRGPGARPRYGSPVRDLPPAKRMRPDWGDGDVRANPRFGGYDPYLMQAWNDHYQSMHSAYSHGGHAPPVRESIGGGGGDTLTQPAMLNLKQFLDTQDENISDSEVMRKYTEYKTDFKRQQLNEFFVAHKDEEWFKNKYHPEDSVKRSEEQRGFLQRRTDVFMELLENGTIGSVKVDSSQADALIRVLDTCVIKLEGGTDEDLKVLDEKPKDPVVYERKAEQMQSVKEVEKTINSPKEEMSEADPVSTQRKPVRPVNSDGENWDDDDAENSAPKKELAEDSKDSDSKPEDKQLNKKKTKKRKRNSSDDDSSSSESSSSSDEEKLKEKYDVEDGLRAEQKTEAEKDRQEATKAKQGPQSPKLDEDEGNENTEPKGLDSKINTYEEIDNTLKSPEISSNPIKNTDNGDGSKVEEDGEKPSVGKDKVVETETIDLDKVKDGQPRALHRTSSIFLRNLAPSITRSEIEAVCNRFSGYLRVAIADPLVERRWYRRGWITFMRDVNIKEICWGLNNQRLRDCEMGAIVNRDLSRRVRPANGITAHKQVVRSDIKLCAKIALNLDEKFRLWAEGPKDDSNSARANESSENGSGSTYGFNSQNPVLQNITDYLIEEASAEEEELLGLTGENKDTEGEPIERDEQLISVLDRLVLYLRIVHSVDYYNHCEYPYEDEMPNRCGIIHARGPPPVRVTNNDVQEYIKIYESKLQQFLTKTVPLSDEEIKNLGAKDAETEVEKFVQANTQELAKDKWLCPLSGKKFKGPEFIRKHIFNKHEEKVDEVRKEVQYFNNYLRDPKRPQLPEHPGTSKRPESESARGGGGGYRPPMYPPFSAMPYGFGPPMMGGGRGGRNFPPARRELPLEHQRRLIGYHDLDAPANSDMFD
binding [1]: binds | binding [2]: binds

B6: CG10489 (protein, UniProt Q9VRQ7 1-525)
chain: MDVDLLPLRKRITNTFKLCGFLIRSENSSYLAEQLLPFDAAERDKWLTVITENLQSQKLLTPHVERAALEKAINELNRVGLDEGETVFALIDAFTVPRFRYNQRIKKFELDTQPRQLLTAPRMKSDYMQQRYAMLLQKTLRHDLFAPAVIQDGVGAEAQAKKFKLQFAENLLATSAMKEAVVLGLLTQLKEGKFYVEDPTGCVQLDLTGARFHAGFFCEGCFVLAEGNYNNGVLKVDGLGFPPAEPANSSRAFFGTANTWGGESAKLLKYSAGLQELERTNTETTIVFLSDVRLDLPVVMEKLRQLFVGYDSCPPQAIVLMGPFTASTRNHHELRHHLDALGGLAAGCEQLKKQTDLILVPSSEDPTAPNILPRAPIPECLAAGLLKAWPRTQLATNPCRLQYCTQQIVVCRLDLMAKFCRNTLHFPEDTSQIEQHFARTIVCQGHLVPIHPIAMPVHWDYDPALWLYPLPDLIVMGDSCQSFSSSQHGCTVLNTGSFVKSKFAFKVYIPATRTIEDSEIPDELE
binding [1]: binds | binding [2]: binds

The remaining lines, values ahead:

binding [1]: binds | binding [2]: binds
B1: RnrL (protein, UniProt P48591 1-812)
chain: MLKNKSMKTSKLYVIKRDGRQEEVHFDKITSRIQKLCYNLNMDFVDPVTITLQVINGLYCGVTTQELDNLAAEIAAGLTCNHPDYAILAARIAVSNLHKETKKAFSDVFEDLYNHVNKETNQKVPLVSEFHYNVVKKNATRLNSSIIYDRDFGYNYFGFKTLERSYLLKRNGKIAERPQHMLMRVAIGIHGEDIDAAVETYNLLSERYFTHASPTLFAAATNRPQLSSCFLLTMTADSIEGIFKSVEQCAMISKSAGGIGLNVHCIRAKGTSICGTNGTSNGLVPMLRVFNNVARYVDQGGGKRPGAFAIYLEPWHSDVFEFLELKKNTGKEENRARDLFYALWIPDLFMKRVEANGDWSLMCPHKCPGLHDVWGDEFEKLYEKYEQEGRANRTVKAQSLWFAIIEAQVETGNPYMLFKDACNRKSNQQNVGTIKCSNLCTEIVEYSAPDEIAVCNLASIALNMFVTPEKTYDFKKLKEVTKIVTKNLNKIIDINYYPLPEARKSNLRHRPVGIGIQGFADALILMRFPYESEEAGLLNQQIFETIYYGALEASCELAQTEGPYETYEGSPVSKGILQYDMWDKVPTNLWDWQKLKESIRMHGVRNSLLVAPMPTASTAQIMGNNESFEPYTTNIYTRRVLSGEFQVVNHHLLRDLTELDLWDDDMKNQIISSRGSIQNIETIPPKVRDLYKTVWEISVKSTIKMAADRGAFIDQSQSFNIHVAEPNYGKLTSIHFYSWKAGLKTGMYYLRTKPAANAIQFTVNKKQGAVSMNGQNGTAEGSPQKYEEDRERKMADMVCSLENKDACMSCGS

binding [1]: binds | binding [2]: binds
B3: REG (protein, UniProt Q9V3P3 1-245)
chain: MPNDTVVKVQEYKDSLILKAELLITKGFPENIVRLNELLATPIFNERNFEEVHQDLNIPVLPPLLVKNELEDRDSLPTKRQRVDVIVSGQPVMGLPAGTVPCNKPLCEMIKVVKPIIRKLVEDSNLLKMWISFMIPKIEDGNNFGVSIQEDTLAEIQTVESEAAAFFDQISRYFLSRAKVVSKVAKYPHIDDYRRAVVELDEKEYLSLWLVVCEVRNRYSSLHDIVIKNLEKLKKPRSSNTESLY

binding [2]: binds
B4: HDAC4 (protein, UniProt Q9VYF3 1-1252)
chain: MSSPDDRIPIHDLPSEAGSDERLLHITPATLTLDFKPHPAVDIDQQIMELKKSQELQKQRLINSFQEQSKQMELEHKLQLEHKYQFAVNSHGAFQELRNESMVTAAAAAVAQEQHRQQLHQQQQQHQQQQQQQQHQQQQQQQQARGRDGMKLKQNCSANASPEVKQILNCFILSRKSQAAASNGTTTTSPYRNRGVVKSSSGESLPAGTVTSAHPYKIPQPPPSLLKYESDFPLRKTASEPNLLKIRLKQSVIERKARIGGPAGARRHERLLQAAQRRQQKNSVLTNCNSTPDSGPNSPPSAAALAVGVVGSRGSPTSAPIQEENEEGSQYQPGQRSSINDLPLFSSPSLPNISLGRPHLPNSAQAHAQVNAQVAAQAQAQAQAQAQAHAMFAALAAAQGGCGQPGYYNPLGMAFVGRQPAPLAMIPATGIAPQQPSPVVRSASATSTSSSQASLVGDVAPPQAHAASTILPSSSSYMQQLGSVAGSGVNLHAAAVAAAAAAAAAAGSLPPTNSHGHGHGSHAHPHPHAHGHGHGHGHGIYAGHQHNVPITDAQVAQVHLHKQGHRPLGRTQSAPLPLGHPMLTGAVQLNVVQTHYENSEAERQAYEHQVVNQKVRQTVLTRSGAAAAAAAAAGVSVVREAQLKEEDDDSAAEVMDLTDKKKPPKTVLTSTIATSTSQNLPEALAAAAAAAAYRAPHNASSNSASATKSGIKLRDQEYLQQQREQLLLLQQEEELAKSLMRPLSRTLSSPLVPLGPHGLSQIPDTGQQPAPIATSSSADHIPPVNLSLPHRQHRQLMSTLYASQLRNHQPSASGSPPHKVTTGLAYDPLMLKHSCICGDNAQHPEHSGRLQSVWARLNETDLVKRCDRLRARKATQEELQTVHTEAHAMLFGSNQCQLSRPKLENTLSASFVRLSCGGLGVDLDTTWNEHHTATAARMAAGCVIDLALKTAKGDLRNGFAVVRPPGHHAEANLAMGFCFFNSIAIAAKLLRQRMPEVRRILIVDWDVHHGNGTQQAFYQSPDILYLSIHRHDDGNFFPGTGGPTECGSGAGLGFNVNISWSGALNPPLGDAEYIAAFRTVVMPIARSFNPDIVLVSSGFDAATGHPAPLGGYHVSPACFGFMTRELLQLANGKVVLALEGGYDLAAICDSAQECVRALLGDPAAPIAKAELERPPCQNAINTLQKTIAIQQTHWPCVRMLEHTVGLSALETLKVEHDESETINAMAGLSMQSMHRTLSRDDSEEPMDQDETK
